# Measured values: the supplement of paper PMC8728848
# The other results are listed elsewhere or left out.
# B1: Vd7LysM (Verticillium dahliae) (protein)
# chain: RRGPEPKYPPAAGTSSYCSYWVDYEGDKSCSRVLEDNVVVLKDFARWNPTVGADCSGIKAGNSYCVEAFGEPEPIEVTTTTRAATTTTQPTATTTTFANGIATPQPTQSGMVTNCNKFHWIAEGVSCSQVISFQKITLADFVKWNPSVKSDCSGMWAGVNVCVGVVGSSTDTAKPTTTAPSNGVVTPQPTQPSMVTNCNKFHWIAKGVTCQQVISYQKISLADFVKWNPSVLSDCSGMWAEVQVCVGVIGSTPTTLATTTTTAGNGVSTPLPTQPGMVTNCAKFHWVAKGVTCNQIYSFQKITLEQFVSYNPTVKSDCSGMQAEVQVCVGLIAGTTPTTTRPPTTTAPGNGVSTPQPTQPGMVTNCAKFHWVAKGVTCNQIYSFQKITLEQFVSFNPTVKSDCTGMQAEVNVCVGLIGGNPTPTQTGNGIATPTPIQPGMVSNCKKFHWIAQGVTCQQVISFQKITLADFVKWNTGVGSDCRTMWAETNVCVGV
# Assays:
# Experiment in all cases: glycan array binding signal (z-score within array); higher = stronger binding
# Details in all cases: glycan notation: IUPAC condensed, linker removed
# [1] = target: Neu5Ac(a2-6)Gal(b1-4)GlcNAc(b1-2)Man(a1-3)[Man(a1-6)]Man(b1-4)GlcNAc(b1-4)GlcNAc
# Method in brief: (§1)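 Glycan array data were curated from 3228 arrays in the Consortium for Functional Glycomics database and kept only where the protein sequence was available. Glycan names were converted to IUPAC-condensed notation, and columns mapping to the same glycan were averaged. The binding signal is a within-array Z-score, averaged across arrays of the same protein sequence at different concentrations or buffers and across linkers. Negative Z-scores can be read as non-binding.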
# [2] = target: Neu5Ac(a2-6)Gal(b1-4)GlcNAc(b1-2)Man(a1-3)[Neu5Ac(a2-3)Gal(b1-4)GlcNAc(b1-2)Man(a1-6)]Man(b1-4)GlcNAc(b1-4)GlcNAc
# Method in brief: as §1
# [3] = target: Neu5Ac(a2-6)Gal(b1-4)GlcNAc(b1-2)Man(a1-3)[Neu5Ac(a2-6)Gal(b1-4)GlcNAc(b1-2)Man(a1-6)]Man(b1-4)GlcNAc(b1-4)GlcNAc
# Method in brief: as §1
# [4] = target: Neu5Ac(a2-6)Gal(b1-4)GlcNAc(b1-2)Man(a1-3)[Neu5Ac(a2-6)Gal(b1-4)GlcNAc(b1-2)Man(a1-6)]Man(b1-4)GlcNAc(b1-4)[Fuc(a1-6)]GlcNAc
# Method in brief: as §1
# [5] = target: Neu5Ac(a2-6)Gal(b1-4)GlcNAc(b1-2)Man(a1-6)Man(b1-4)GlcNAc(b1-4)GlcNAc
# Method in brief: as §1
# [6] = target: Neu5Ac(a2-6)Gal(b1-4)GlcNAc(b1-2)Man(a1-6)[Gal(b1-4)GlcNAc(b1-2)Man(a1-3)]Man(b1-4)GlcNAc(b1-4)GlcNAc
# Method in brief: as §1
# [7] = target: Neu5Ac(a2-6)Gal(b1-4)GlcNAc(b1-2)Man(a1-6)[GlcNAc(b1-2)Man(a1-3)]Man(b1-4)GlcNAc(b1-4)GlcNAc
# Method in brief: as §1
# [8] = target: Neu5Ac(a2-6)Gal(b1-4)GlcNAc(b1-2)Man(a1-6)[Man(a1-3)]Man(b1-4)GlcNAc(b1-4)GlcNAc
# Method in brief: as §1
# [9] = target: Neu5Ac(a2-6)Gal(b1-4)GlcNAc(b1-2)[Neu5Ac(a2-6)Gal(b1-4)GlcNAc(b1-4)]Man(a1-3)[GlcNAc(b1-4)][Neu5Ac(a2-6)Gal(b1-4)GlcNAc(b1-2)[Neu5Ac(a2-6)Gal(b1-4)GlcNAc(b1-6)]Man(a1-6)]Man(b1-4)GlcNAc(b1-4)GlcNAc
# Method in brief: as §1
# [10] = target: Neu5Ac(a2-6)Gal(b1-4)GlcNAc(b1-2)[Neu5Ac(a2-6)Gal(b1-4)GlcNAc(b1-4)]Man(a1-3)[GlcNAc(b1-4)][Neu5Ac(a2-6)Gal(b1-4)GlcNAc(b1-4)Man(a1-6)]Man(b1-4)GlcNAc(b1-4)GlcNAc
# Method in brief: as §1
# [11] = target: Neu5Ac(a2-6)Gal(b1-4)GlcNAc(b1-2)[Neu5Ac(a2-6)Gal(b1-4)GlcNAc(b1-6)]Man(a1-6)[Neu5Ac(a2-6)Gal(b1-4)GlcNAc(b1-2)Man(a1-3)][GlcNAc(b1-4)]Man(b1-4)GlcNAc(b1-4)GlcNAc
# Method in brief: as §1
# [12] = target: Neu5Ac(a2-6)Gal(b1-4)GlcNAc(b1-3)Gal(b1-3)GlcNAc
# Method in brief: as §1
# [13] = target: Neu5Ac(a2-6)Gal(b1-4)GlcNAc(b1-3)Gal(b1-4)GlcNAc
# Method in brief: as §1
# [14] = target: Neu5Ac(a2-6)Gal(b1-4)GlcNAc(b1-3)Gal(b1-4)GlcNAc(b1-2)Man(a1-3)[Neu5Ac(a2-6)Gal(b1-4)GlcNAc(b1-3)Gal(b1-4)GlcNAc(b1-2)Man(a1-6)]GalNAc
# Method in brief: as §1
# [15] = target: Neu5Ac(a2-6)Gal(b1-4)GlcNAc(b1-3)Gal(b1-4)GlcNAc(b1-3)Gal(b1-4)GlcNAc
# Method in brief: as §1
# [16] = target: Neu5Ac(a2-6)Gal(b1-4)GlcNAc(b1-3)Gal(b1-4)GlcNAc(b1-3)Gal(b1-4)GlcNAc(b1-2)Man(a1-3)[Neu5Ac(a2-6)Gal(b1-4)GlcNAc(b1-3)Gal(b1-4)GlcNAc(b1-3)Gal(b1-4)GlcNAc(b1-2)Man(a1-6)]GalNAc
# Method in brief: as §1
# [17] = target: Neu5Ac(a2-6)Gal(b1-4)GlcNAc(b1-3)Gal(b1-4)GlcNAc(b1-3)GalNAc
# Method in brief: as §1
# [18] = target: Neu5Ac(a2-6)Gal(b1-4)GlcNAc(b1-3)Gal(b1-4)GlcNAc(b1-3)[Neu5Ac(a2-6)Gal(b1-4)GlcNAc(b1-3)Gal(b1-4)GlcNAc(b1-6)]GalNAc
# Method in brief: as §1
# [19] = target: Neu5Ac(a2-6)Gal(b1-4)GlcNAc(b1-3)Gal(b1-4)GlcNAc(b1-6)[Gal(b1-3)]GalNAc
# Method in brief: as §1
# [20] = target: Neu5Ac(a2-6)Gal(b1-4)GlcNAc(b1-3)Gal(b1-4)[Fuc(a1-3)]GlcNAc(b1-3)Gal(b1-4)[Fuc(a1-3)]GlcNAc
# Method in brief: as §1
# [21] = target: Neu5Ac(a2-6)Gal(b1-4)GlcNAc(b1-3)GalNAc
# Method in brief: as §1
# [22] = target: Neu5Ac(a2-6)Gal(b1-4)GlcNAc(b1-3)[Neu5Ac(a2-6)Gal(b1-4)GlcNAc(b1-6)]GalNAc
# Method in brief: as §1
# [23] = target: Neu5Ac(a2-6)Gal(b1-4)GlcNAc(b1-6)GalNAc
# Method in brief: as §1
# [24] = target: Neu5Ac(a2-6)Gal(b1-4)GlcNAc(b1-6)[Gal(b1-3)GlcNAc(b1-3)]Gal(b1-4)Glc
# Method in brief: as §1
# [25] = target: Neu5Ac(a2-6)Gal(b1-4)GlcNAc(b1-6)[Gal(b1-3)]GalNAc
# Method in brief: as §1
# [26] = target: Neu5Ac(a2-6)Gal(b1-4)GlcNAc6S
# Method in brief: as §1
# Neu5Ac(a2-6)GalNAc = target: Neu5Ac(a2-6)GalNAc
# Method in brief: as §1
# [27] = target: Neu5Ac(a2-6)GalNAc(b1-4)GlcNAc
# Method in brief: as §1
# [28] = target: Neu5Ac(a2-6)GalNAc(b1-4)GlcNAc6S
# Method in brief: as §1
# [29] = target: Neu5Ac(a2-6)GlcNAc(b1-4)GlcNAc
# Method in brief: as §1
# [30] = target: Neu5Ac(a2-6)GlcNAc(b1-4)GlcNAc(b1-4)GlcNAc
# Method in brief: as §1
binder,measurement,setting,value
B1,glycan array binding signal (z-score),[1],2.4
same,glycan array binding signal (z-score),[2],0.213
same,glycan array binding signal (z-score),[3],0.121
same,glycan array binding signal (z-score),[4],0.236
same,glycan array binding signal (z-score),[5],-0.657
same,glycan array binding signal (z-score),[6],-0.667
same,glycan array binding signal (z-score),[7],-1.3
same,glycan array binding signal (z-score),[8],-0.481
same,glycan array binding signal (z-score),[9],-0.212
same,glycan array binding signal (z-score),[10],-0.785
same,glycan array binding signal (z-score),[11],-1.31
same,glycan array binding signal (z-score),[12],-0.033
same,glycan array binding signal (z-score),[13],-0.403
same,glycan array binding signal (z-score),[14],2.01
same,glycan array binding signal (z-score),[15],0.068
same,glycan array binding signal (z-score),[16],-0.435
same,glycan array binding signal (z-score),[17],-0.576
same,glycan array binding signal (z-score),[18],1.12
same,glycan array binding signal (z-score),[19],-0.146
same,glycan array binding signal (z-score),[20],1.17
same,glycan array binding signal (z-score),[21],-0.733
same,glycan array binding signal (z-score),[22],0.903
same,glycan array binding signal (z-score),[23],-2.3
same,glycan array binding signal (z-score),[24],0.829
same,glycan array binding signal (z-score),[25],-0.467
same,glycan array binding signal (z-score),[26],0.8
same,glycan array binding signal (z-score),Neu5Ac(a2-6)GalNAc,0.058
same,glycan array binding signal (z-score),[27],-2.02
same,glycan array binding signal (z-score),[28],-1.51
same,glycan array binding signal (z-score),[29],-0.836
same,glycan array binding signal (z-score),[30],-0.474

# Fetched one by one from the list above (2):
binder,measurement,setting,value
B1,glycan array binding signal (z-score),[29],-0.836
same,glycan array binding signal (z-score),[20],1.17
